Results: US20090318556A1, “BIOMARKERS FOR DETECTING RADIATION EXPOSURE: METHODS AND USES THEREOF” (priority 2008, published 2009)
Structures can show the parent of a compound that is named as a salt.

Assay: Urinary biomarkers after γ irradiation of mice (24-h urine, UPLC-TOFMS)
Format: in vivo, Male C57BL\6 mice
Parameters: key to Note: [M − H]− ion in urine according to exposure status: [M − H]− (±10 ppm) either not detected or not statistically significantly different (P ≧ 0.05) according to exposure status; 2: [M − H]− (±10 ppm) elevated (P < 0.05) in urine from mice exposed to 3 Gy; 3: [M − H]− (±10 ppm) elevated (P < 0.05) in urine from mice exposed to 8 Gy; 4: [M − H]− (±10 ppm) elevated (P < 0.05) in urine from mice both exposed to 3 and 8 Gy
Details: for urinary excretion reduced after irradiation / urinary excretion elevated after irradiation over sham / urinary concentration normalized to creatinine / elevated after γ irradiation: 0-24 h urine; for urinary excretion reduced after irradiation: relative peak area normalized to creatinine; for urinary excretion elevated after irradiation over sham: normalized to creatinine; for Note: [M − H]− ion in urine according to exposure status: mice exposed to 3 or 8 Gy vs controls, creatinine-normalized relative concentrations, t test α = 0.05; for elevated after γ irradiation: 3 and 8 Gy γ irradiation
[1] = 3 Gy irradiated mice, mean±s.d.
[2] = 8 Gy irradiated mice, mean±s.d.

## Nc1ccn([C@H]2C[C@H](O)[C@@H](CO)O2)c(=O)n1 [2′-Deoxycytidine]
3 Gy γ irradiation
  urinary excretion reduced after irradiation: five
8 Gy γ irradiation
  urinary excretion reduced after irradiation: three

## O=c1ccn([C@H]2C[C@H](O)[C@@H](CO)O2)c(=O)[nH]1 [2′-Deoxyuridine]
3 Gy
  ratio of 2′-deoxyuridine to 2′deoxycytidine in urine: approximately 55
3 Gy γ irradiation
  urinary excretion elevated after irradiation over sham: 11 fold
8 Gy
  ratio of 2′-deoxyuridine to 2′deoxycytidine in urine: ~15
8 Gy γ irradiation
  urinary excretion elevated after irradiation over sham: five

## O=c1[nH]c(=O)c2ncn([C@H]3C[C@H](O)[C@@H](CO)O3)c2[nH]1 [2′-Deoxyxanthosine]
3 Gy γ irradiation
  urinary excretion elevated after irradiation over sham: four
8 Gy γ irradiation
  urinary excretion elevated after irradiation over sham: six

## Cc1c(OS(=O)(=O)O)cccc1C(=O)O [3-hydroxy-2-methylbenzoic acid 3-O-sulfate]
3 Gy γ irradiation
  urinary excretion elevated after irradiation over sham: 2.5 fold
8 Gy γ irradiation
  urinary excretion elevated after irradiation over sham: not elevated

## COc1cc(C(O)C(=O)O)ccc1O (stereo not shown) [4-Hydroxy-3-methoxymandelic acid]
  Note: [M − H]− ion in urine according to exposure status: 1

## COc1cc(C(O)CO)ccc1O (stereo not shown) [4-Hydroxy-3-methoxyphenylglycol]
  Note: [M − H]− ion in urine according to exposure status: 1

## O=C(O)Cc1c[nH]c2ccc(O)cc12 [5-Hydroxyindoleacetic acid]
  Note: [M − H]− ion in urine according to exposure status: 3

## Nc1nc2nc(O)[nH]c2c(=O)[nH]1 [8-Hydroxyguanine]
  Note: [M − H]− ion in urine according to exposure status: 2

## CCCCC[C@H](O)/C=C/[C@@H]1[C@H](C/C=C\CCCC(=O)O)[C@@H](O)C[C@H]1O [8-Isoprostaglandin F2α]
  Note: [M − H]− ion in urine according to exposure status: 1

## O=C(O)CC(O)(CC(=O)O)C(=O)O [Citric Acid]
  Note: [M − H]− ion in urine according to exposure status: 4

## NCC(=O)O [Glycine]
  Note: [M − H]− ion in urine according to exposure status: 1

## O=C(O)CNC(=O)c1ccccc1 [Hippuric Acid]
  Note: [M − H]− ion in urine according to exposure status: 3

## COc1cc(CC(=O)O)ccc1O [Homovanillic acid]
  Note: [M − H]− ion in urine according to exposure status: 1

## O=S(=O)(O)Oc1c[nH]c2ccccc12 [Indoxyl sulfate]
  Note: [M − H]− ion in urine according to exposure status: 1

## CNCC(O)c1ccc(O)c(OC)c1 (stereo not shown) [Metanephrine]
  Note: [M − H]− ion in urine according to exposure status: 1

## CCCCCC(=O)NCC(=O)O [N-Hexanoylglycine]
[1]
  urinary concentration normalized to creatinine: 643±259 μmol/mmol creatinine
  elevated after γ irradiation: 40-80%
[2]
  urinary concentration normalized to creatinine: 802±117 μmol/mmol creatinine

## COc1cc(C(O)CN)ccc1O (stereo not shown) [Normetanephrine]
  Note: [M − H]− ion in urine according to exposure status: 3

## CCCCC[C@H](O)/C=C/[C@H]1OC(O)C[C@H](O)[C@@H]1C/C=C\CCCC(=O)O (stereo partly shown) [Thromboxane B2]
  Note: [M − H]− ion in urine according to exposure status: 1

## CC1(O)C(=O)NC(=O)N([C@H]2C[C@H](O)[C@@H](CO)O2)C1O (stereo partly shown) [Thymidine glycol]
  Note: [M − H]− ion in urine according to exposure status: 1

## CC1(O)C(=O)NC(=O)NC1O (stereo not shown) [Thymine glycol]
  Note: [M − H]− ion in urine according to exposure status: 1

## O=c1[nH]c(=O)c2[nH]cnc2[nH]1 [Xanthine]
3 Gy γ irradiation
  urinary excretion elevated after irradiation over sham: five
8 Gy γ irradiation
  urinary excretion elevated after irradiation over sham: not after 8 Gy irradiation

## O=c1[nH]c(=O)c2ncn([C@@H]3O[C@H](CO)[C@@H](O)[C@H]3O)c2[nH]1 [Xanthosine]
3 Gy γ irradiation
  urinary excretion elevated after irradiation over sham: two
8 Gy γ irradiation
  urinary excretion elevated after irradiation over sham: five

## NCCS(=O)(=O)O [taurine]
3 Gy irradiated mice
  urinary concentration normalized to creatinine: 8.52±1.90 mmol/mmol creatinine
8 Gy γ irradiation
  urinary excretion elevated after irradiation over sham: elevated only after the 8 Gy dose

## Cc1cn([C@H]2C[C@H](O)[C@@H](CO)O2)c(=O)[nH]c1=O [β-Thymidine]
[1]
  urinary concentration normalized to creatinine: 67.7±17.4 μmol/mmol creatinine
  elevated after γ irradiation: 6- to 7 fold
[2]
  urinary concentration normalized to creatinine: 35.6±8.84 μmol/mmol creatinine
